In PubChem BioAssay AID623959 (National Center for Advancing Translational Sciences (NCATS), 2012):
Among all 1,400 compounds or so, fewer than 10 were called active. Another 8% or so got no clear call; they are omitted. Calls follow the shape of the dose curve; as a rule, active = well fitted curve in the direction sought with a large enough effect; inconclusive = small, poorly fitted or top-dose-only effect, or another doubt; inactive = no such curve, though single readings can be large or run the other way. The list shows a part of the results.

Protein sequences, listed by entry. Tags and fused reporters are not part of them.
UniProt Q8NER1, whole entry, looked up: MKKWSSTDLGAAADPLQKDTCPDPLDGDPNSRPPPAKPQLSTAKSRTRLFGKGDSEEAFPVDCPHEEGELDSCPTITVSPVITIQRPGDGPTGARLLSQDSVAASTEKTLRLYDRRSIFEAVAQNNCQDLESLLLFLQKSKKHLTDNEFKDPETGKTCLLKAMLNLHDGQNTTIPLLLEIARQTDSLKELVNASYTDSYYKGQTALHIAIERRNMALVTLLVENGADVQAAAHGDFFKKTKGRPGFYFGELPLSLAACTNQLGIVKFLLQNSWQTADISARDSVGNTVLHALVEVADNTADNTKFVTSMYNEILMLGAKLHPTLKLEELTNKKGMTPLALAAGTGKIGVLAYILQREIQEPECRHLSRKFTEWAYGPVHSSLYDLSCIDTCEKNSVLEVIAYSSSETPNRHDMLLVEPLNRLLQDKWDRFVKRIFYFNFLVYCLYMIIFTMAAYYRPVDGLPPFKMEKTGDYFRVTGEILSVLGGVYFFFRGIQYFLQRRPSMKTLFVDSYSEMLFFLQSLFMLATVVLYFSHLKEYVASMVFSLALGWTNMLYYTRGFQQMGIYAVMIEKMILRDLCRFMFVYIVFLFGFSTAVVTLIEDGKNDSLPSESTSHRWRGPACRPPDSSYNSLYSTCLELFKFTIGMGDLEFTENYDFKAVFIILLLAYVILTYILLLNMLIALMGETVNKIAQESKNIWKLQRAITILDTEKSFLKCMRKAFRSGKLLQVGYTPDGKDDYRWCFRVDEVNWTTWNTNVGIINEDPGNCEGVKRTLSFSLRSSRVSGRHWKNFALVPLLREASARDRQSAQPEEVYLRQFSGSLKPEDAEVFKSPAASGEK

Target: Transient receptor potential cation channel subfamily V member 1 (Homo sapiens) (UniProt Q8NER1)
Assay: qHTS Assay for Compounds that Act as Potentiators of the Vanilloid Receptor 1: Hit Validation; also: % of control where 0% means no effect
Details: TRPV1-expressing cells, Fluo-8 calcium influx, capsaicin EC20; series mostly up to 42.1 µM; activity change, positive = potentiation: at the top concentration
Description: The transient receptor potential ion channel, family V, number 1, (TRPV1) is one of the most important molecular transducers of painful stimuli and a potential target for analgesic drug development. Although recent clinical trials with orthosteric antagonists have not produced a successful drug because of a hyperthermia side effect and their tendency to block thermal noxious pain, this ion channel is undeniably well placed in the pain pathway, and the idea of blocking pain signals before they enter the CNS is an excellent concept and of proven efficacy when TRPV1 agonists are used. We propose a new approach involving allosteric modulation to impose an activity-dependent constraint within the context of inflammation and tissue damage that would alter the responsiveness of the channel in a way that an orthosteric vanilloid antagonist cannot achieve. We believe that the allosteric modulator approach has not been explored for this target. The main goal of this proposal is to identify additional, new, potent allosteric modulators of TRPV1 that can be used to investigate TRPV1 function. Our recent report provides evidence of proof of concept, but the compounds are just at the edge of utility in terms of potency. […] The question of whether they can be used as analgesic agents is complex, but if suitable compounds are identified then testing for analgesic properties will be conducted. Compounds identified as agonists were re-tested in the primary screen for hit validation. NIH Chemical Genomics Center [NCGC] NIH Molecular Libraries Probe Centers Network [MLPCN] MLPCN Grant: MH089480 Assay Submitter (PI): Michael Iadarola, National Institute of Dental and Cranofacial Research
Upon TRPV1 activation in TRPV1 cells, the channel opens and extracellular cations flow through the channel into the cytosol. A calcium binding dye (Fluo-8) becomes fluorescent when bound to calcium. This dye is pre-loaded into cells and is used as a marker for calcium influx. The amount of accumulated calcium is precisely quantified using the FDSS kinetic reader and the calcium dye. For the HTS assay, freshly prepared cells are plated at a density of 2000/well in 3 ul medium in 1536-well plates and cultured overnight at 35.5C. Cells will be loaded with 1 ul of the homogeneous calcium dye (ABD Bioquest) at room temperature for 40 to 90 minutes. Plates will be loaded into the FDSS kinetic reader and a 1 sec / cycle for 10 second baseline signal will be measured. Compound library will then be added with a pintool at 23 nl and measured kinetically for 3 minutes. This portion of the read is considered the agonist portion of the screen. Following the 3 minutes of incubation, an on board pipettor will deliver 1 ul of capsaicin for a final concentration equal to the EC20. Signal will be measured kinetically for an additional 2 minutes. This portion of the read is considered the allosteric enhancer portion of the screen. The FDSS reader has a standard filter set capable of measuring calcium bound Fluo-8 (ex=480 and em=520 nm).

Activity change, positive = potentiation, inactive:
CC(=O)N1CCN(C(=O)c2cc(S(=O)(=O)N3CCN(c4ccccc4)CC3)ccc2Cl)CC1 0.0319%
CSc1ccccc1NC(=O)c1cccs1 -12.5%
Cc1ccccc1NC(=O)CCN1CCN(Cc2ccccc2)CC1 6.3%
O=C(COc1ccccc1Cl)NCCCNC(=O)c1ccco1 -5.63%
COc1ccc(C(=O)Nc2nc3ccccc3s2)cc1 -36%
Cc1cc(C(F)(F)F)n2nc(-c3cnn(C)c3C(F)(F)F)c(Br)c2n1 -6.52%
O=C(Nc1ccc(S(=O)(=O)NC2=NCCCCC2)cc1)c1ccc([N+](=O)[O-])s1 10.5%
COCCN1C(=O)N(c2cccc(C)c2)C(=O)C1CC(=O)Nc1cc(OC)cc(OC)c1 (stereo not given) 0.774%
COc1ccc(Nc2ccc(N3C(=O)CC(C)C3=O)cc2[N+](=O)[O-])cn1 (stereo not given) -9.15%
COc1ccc(NC(=O)c2sc3nc(C)cc(C)c3c2N)cc1 5.48%
O=C(N/N=C/c1c(O)n(-c2ccccc2Cl)c(=O)c2ccccc12)c1cccnc1 2.99%
COc1ccc(S(=O)(=O)Nc2ccc(Oc3ccsc3C(=O)O)cc2)cc1 -0.892%
CC(C)c1ccc(NC2CCCN(C(=O)c3ccnc(Cl)c3)C2)cc1 (stereo not given) -38.9%
COc1ccc(/C=C/C(=O)Nc2cccnc2Cl)cc1 -37.6%
Cc1nn(-c2ccccc2)nc1C(=O)Nc1ccc2[nH]ncc2c1 -35%
Cn1c(=O)oc2cc(S(=O)(=O)N3CCCC(C(=O)NC4CCCc5ccccc54)C3)ccc21 (stereo not given) -5.23%
COc1cc(OC)cc(C(=O)Nc2c(F)cccc2F)c1 -4.51%
CC(C)C[C@H](NC(=O)c1nc[nH]c1C(=O)N1CCC(C)CC1)C(=O)OCc1ccccc1 -10.6%
CNC(=S)NNC(=O)CNc1ccc(C)c(Cl)c1 -9.79%
COc1cc(NC(=O)CSc2nc(C)cc(C)n2)cc(OC)c1OC 0.95%
COc1ccc(N2C(=O)CSC2c2cccs2)cc1 (stereo not given) -5.89%
O=C(CSc1nc2ccccc2[nH]1)c1ccccc1F 3.85%
CCS(=O)(=O)N1Cc2ccccc2CC1C(=O)Nc1nnc(SCc2ccc(F)cc2)s1 (stereo not given) 17.8%
CCOc1ccc(NC(=O)Cc2c(C(=O)O)n(C)c3ccccc23)cc1 -7.56%
COc1ccc(/C=N/N2CCN(c3ccccc3)CC2)cc1Br -11.7%
COc1ccc(-c2ccc(NS(=O)(=O)c3cc([N+](=O)[O-])ccc3C)cc2)nn1 3.92%
O=C(NC(Cc1c[nH]c2ccccc12)C(=O)N/N=C/c1ccc(Br)cc1)c1cccs1 (stereo not given) 0.128%
C=CCn1c(SCC(=O)Nc2sc3c(c2C#N)CCC3)nnc1C1COc2ccccc2O1 (stereo not given) 2.16%
O=C(O)c1c(-c2ccccc2)oc2ccc(O)cc12 -2.13%
O=C1N/C(=C/c2cccs2)C(=O)N1Cc1ccc(Br)cc1 -8.53%
CSc1ccccc1C(=O)N1CCCC(CNC(=O)c2ccc(F)cc2)C1 (stereo not given) -5.38%
CC(=O)c1cccc(Nc2nc(-c3ccccc3)nc3ccccc23)c1 -6.61%
CC(C)(C)C(=O)Nc1cccc(-c2nc3ccccc3[nH]2)c1 7.02%
COC(=O)c1sccc1NC(=O)CSc1ccccc1NS(=O)(=O)c1ccccc1Cl -5.58%
COCCCNC(=O)Cn1cc(C(=O)C2CC2)c2ccccc21 -4.57%
COc1ccc(C(=O)Nc2ccc3ccccc3c2)cc1 -32.9%
CCn1cc(C(=O)NCCc2ccccc2)c(=O)c2cc(S(=O)(=O)N3CCCC3)ccc21 -38.5%
COc1ccc(C2=NCCn3nc4cc(OC)ccc4c32)cc1 3.66%
O=[N+]([O-])c1ccc(/C=C/c2nc3ccc([N+](=O)[O-])cc3[nH]2)cc1 -7.44%
Cc1cc(NC(=O)C(C)C)ncc1NC(=O)c1cccc(F)c1 -6.46%
CC(C)(C)c1ccc(/C=C/C(=O)Nc2cccnc2)cc1 -39.1%
CN(C(=O)CC(=O)Nc1ccc(Cl)c(Cl)c1)c1ccccc1 -10.8%
O=C(N1CCOCC1)N1CCN(c2ccccc2F)CC1 -38%
COc1cccc(OCCNC(=O)c2cc(OC)c(OC)c(OC)c2)c1 7.86%
Cc1nc(Nc2cccc(F)c2)c2oc3ccccc3c2n1 -37%
N#C/C(=N\Nc1ccc([N+](=O)[O-])cc1)C(=N)N1CCOCC1 -13.4%
COCCn1cnnc1SCC(=O)Nc1cc(OC)c([N+](=O)[O-])cc1C -6.14%
COc1ccc(NS(=O)(=O)c2cc(NC(=O)c3ccc(C)s3)ccc2N2CCOCC2)cc1 -38.4%
CC(C)(C)c1ccc(NC(=S)NCc2cccnc2)cc1 -26.5%
Cc1nc2ccc(NC(=O)c3ccc([N+](=O)[O-])cc3[N+](=O)[O-])cc2s1 -0.43%
Cc1ccc2oc(C(=O)NCC3CCOCC3)c(C)c2c1 -38.8%
O=C(c1ccc(-c2cccc(C(F)(F)F)c2)o1)N1CCOCC1 -36.7%
COC(=O)[C@H](C)NC(=O)c1cc2c(cn1)[nH]c1ccccc12 11%
O=C(COC(=O)c1nsc(Cl)c1Cl)NC1CCCCC1 -2.6%
CCc1ccc(/C=C2/SC(N3CCOCC3)=NC2=O)cc1 -37.3%
CCn1c(Cc2c(C)[nH]c3ccccc23)nnc1SCC(=O)NCc1ccccc1 12.1%
CC(C)CN(C(=O)COC(=O)CNC(=O)c1sc2ccccc2c1Cl)C1CCS(=O)(=O)C1 (stereo not given) 10.5%
CN1C(=O)/C(=C/c2cccc(Cl)c2)Sc2ccc(C(=O)NCc3cccnc3)cc21 -3.84%
CCc1ccc(NC(=O)C2CCCN(S(=O)(=O)c3c(C)[nH]c(=O)[nH]c3=O)C2)cc1 (stereo not given) -5.4%
Cc1cc(N2CCOCC2)nc2ccc(Cl)cc12 -1.08%
COc1ccc2c(c1)C(c1ccc(Cl)cc1)NC(=O)C2 (stereo not given) -5.08%
NCC(O)COc1ccc2c(c1)OCO2 (stereo not given) -3.55%
COC(=O)C(C(=O)Nc1nc2ccccc2s1)C1CCCC1 (stereo not given) -7.89%
Cc1ccc2cc(C(=O)O)c(C)nc2c1 0.282%
CCC(=O)N1CCc2cc(Br)cc(S(=O)(=O)NC3CCN(Cc4ccccc4)CC3)c21 0.77%
O=C(Nc1ccccc1)O/N=C/c1ccc(F)cc1 7.23%
CC(C)=NOCC(=O)Nn1c(COc2ccccc2)nc2ccccc2c1=O 4.02%
CCN(CC)S(=O)(=O)c1cc(NC(=O)c2ccc(Br)s2)ccc1C -38.1%
CCc1c(C)nc(N2CCN(c3ccc(Cl)cc3)CC2)[nH]c1=O 5.91%
COc1ccc(NS(=O)(=O)c2cc(NC(=O)c3cnc(C)cn3)ccc2N2CCCCC2)cc1 -38%

Some of these compounds in order of length of the SMILES, ascending:
Activity change, positive = potentiation, inactive:
Cc1cc(N2CCOCC2)nc2ccc(Cl)cc12 -1.08%
CNC(=S)NNC(=O)CNc1ccc(C)c(Cl)c1 -9.79%
COc1ccc(/C=C/C(=O)Nc2cccnc2Cl)cc1 -37.6%
O=C(COC(=O)c1nsc(Cl)c1Cl)NC1CCCCC1 -2.6%
COC(=O)C(C(=O)Nc1nc2ccccc2s1)C1CCCC1 (stereo not given) -7.89%
COCCCNC(=O)Cn1cc(C(=O)C2CC2)c2ccccc21 -4.57%
COc1ccc(NC(=O)c2sc3nc(C)cc(C)c3c2N)cc1 5.48%
COc1cc(NC(=O)CSc2nc(C)cc(C)n2)cc(OC)c1OC 0.95%
Cc1nn(-c2ccccc2)nc1C(=O)Nc1ccc2[nH]ncc2c1 -35%
CCc1c(C)nc(N2CCN(c3ccc(Cl)cc3)CC2)[nH]c1=O 5.91%
CSc1ccccc1C(=O)N1CCCC(CNC(=O)c2ccc(F)cc2)C1 (stereo not given) -5.38%
CCN(CC)S(=O)(=O)c1cc(NC(=O)c2ccc(Br)s2)ccc1C -38.1%
COCCn1cnnc1SCC(=O)Nc1cc(OC)c([N+](=O)[O-])cc1C -6.14%
C=CCn1c(SCC(=O)Nc2sc3c(c2C#N)CCC3)nnc1C1COc2ccccc2O1 (stereo not given) 2.16%
O=C(N/N=C/c1c(O)n(-c2ccccc2Cl)c(=O)c2ccccc12)c1cccnc1 2.99%
COc1ccc(NS(=O)(=O)c2cc(NC(=O)c3ccc(C)s3)ccc2N2CCOCC2)cc1 -38.4%
O=[N+]([O-])c1ccc(/C=C/c2nc3ccc([N+](=O)[O-])cc3[nH]2)cc1 -7.44%
CCc1ccc(NC(=O)C2CCCN(S(=O)(=O)c3c(C)[nH]c(=O)[nH]c3=O)C2)cc1 (stereo not given) -5.4%
